Data as given in PubChem BioAssay AID1671195 (Yale University, 2021)

- Test: 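Regulators of LDL receptor activity judged by labelled LDL uptake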 (primary screen)
- Cells: human Huh7 hepatoma cells
- Reagents: siRNA pool against human genes, 18 nM
- Timing: about 2 to 2.5 days of knockdown, then 8 h LDL uptake
- Conditions: DiI-labelled LDL at 30 µg/ml for 8 h, in lipoprotein-deficient serum medium
- Read-out: 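Per-cell DiI-LDL intensity by automated imaging; well means scaled to the plate median and given as a robust z-score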
- Direction: robust z-score: higher = more LDL uptake after knockdown
- Active means: 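a gene counts as active if at least two replicate z-scores exceed ±2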
This is an unselected part of about 22,000 deposited reagents. About 1,510 of all reagents (6.9%) count as active. 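Active includes knockdowns raising or lowering LDL uptake; positive z-scores mean more uptake, negative mean less.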 No sequences are given here.

LOC388713 (retired record)
- robust z-score, replicate 1: 1.04
- robust z-score, replicate 2: 0.429
- robust z-score, replicate 3: 0.445
- outcome: inactive

ESPN (espin)
- robust z-score, replicate 1: 0.573
- robust z-score, replicate 2: 1.58
- robust z-score, replicate 3: 0.022
- outcome: inactive

MFGE8 (milk fat globule EGF and factor V/VIII domain containing)
- robust z-score, replicate 1: 3.67
- robust z-score, replicate 2: 3.52
- robust z-score, replicate 3: 2.51
- outcome: active

LOC388453 (retired record)
- robust z-score, replicate 1: 2.47
- robust z-score, replicate 2: 1.14
- robust z-score, replicate 3: 0.237
- outcome: inactive

VMP1 (vacuole membrane protein 1)
- robust z-score, replicate 1: -0.887
- robust z-score, replicate 2: -1
- robust z-score, replicate 3: -0.287
- outcome: inactive

FBXL21P (F-box and leucine rich repeat protein 21, pseudogene)
- robust z-score, replicate 1: 0.981
- robust z-score, replicate 2: -0.0315
- robust z-score, replicate 3: -1.19
- outcome: inactive

ZFP57 (ZFP57 zinc finger protein)
- robust z-score, replicate 1: -1.12
- robust z-score, replicate 2: -1.07
- robust z-score, replicate 3: -0.852
- outcome: inactive

LOC388227 (retired record)
- robust z-score, replicate 1: -0.797
- robust z-score, replicate 2: -0.518
- robust z-score, replicate 3: -0.339
- outcome: inactive

LOC401169 (retired record)
- robust z-score, replicate 1: 0.589
- robust z-score, replicate 2: 0.149
- robust z-score, replicate 3: 0.524
- outcome: inactive

TCF4 (transcription factor 4)
- robust z-score, replicate 1: -0.127
- robust z-score, replicate 2: 0.692
- robust z-score, replicate 3: 0.93
- outcome: inactive

FCGBP (Fc gamma binding protein)
- robust z-score, replicate 1: 0.0294
- robust z-score, replicate 2: 0.45
- robust z-score, replicate 3: -1.01
- outcome: inactive

LOC729902
- robust z-score, replicate 1: -0.522
- robust z-score, replicate 2: -0.426
- robust z-score, replicate 3: -0.235
- outcome: inactive

SMPD3 (sphingomyelin phosphodiesterase 3)
- robust z-score, replicate 1: 1.27
- robust z-score, replicate 2: 0.597
- robust z-score, replicate 3: 0.339
- outcome: inactive

POLR3B (RNA polymerase III subunit B)
- robust z-score, replicate 1: -0.582
- robust z-score, replicate 2: -0.802
- robust z-score, replicate 3: -0.56
- outcome: inactive

SP3 (Sp3 transcription factor)
- robust z-score, replicate 1: -0.189
- robust z-score, replicate 2: -0.552
- robust z-score, replicate 3: -0.918
- outcome: inactive

MFN2 (mitofusin 2)
- robust z-score, replicate 1: -0.462
- robust z-score, replicate 2: -1.11
- robust z-score, replicate 3: -0.111
- outcome: inactive

2 entries already listed, sorted by “robust z-score, replicate 1”, low to high.
VMP1 (vacuole membrane protein 1)
- robust z-score, replicate 1: -0.887
- robust z-score, replicate 2: -1
- robust z-score, replicate 3: -0.287
- outcome: inactive

LOC388453 (retired record)
- robust z-score, replicate 1: 2.47
- robust z-score, replicate 2: 1.14
- robust z-score, replicate 3: 0.237
- outcome: inactive

The listing continues:
RPL36AP45 (ribosomal protein L36a pseudogene 45)
- robust z-score, replicate 1: 0.389
- robust z-score, replicate 2: 0.291
- robust z-score, replicate 3: 0.509
- outcome: inactive

RPS2P32 (ribosomal protein S2 pseudogene 32)
- robust z-score, replicate 1: -0.136
- robust z-score, replicate 2: -0.164
- robust z-score, replicate 3: -0.22
- outcome: inactive

PLA2G2E (phospholipase A2 group IIE)
- robust z-score, replicate 1: 0.243
- robust z-score, replicate 2: 0.103
- robust z-score, replicate 3: 0.366
- outcome: inactive

LOC441500 (retired record)
- robust z-score, replicate 1: 0.00721
- robust z-score, replicate 2: -0.707
- robust z-score, replicate 3: -0.608
- outcome: inactive

EML5 (EMAP like 5)
- robust z-score, replicate 1: -1.08
- robust z-score, replicate 2: -1.18
- robust z-score, replicate 3: -0.51
- outcome: inactive

DMRTB1 (DMRT like family B with proline rich C-terminal 1)
- robust z-score, replicate 1: -0.226
- robust z-score, replicate 2: -0.315
- robust z-score, replicate 3: -0.588
- outcome: inactive

MED23 (mediator complex subunit 23)
- robust z-score, replicate 1: -1.09
- robust z-score, replicate 2: 0.835
- robust z-score, replicate 3: -0.877
- outcome: inactive

ZNF277 (zinc finger protein 277)
- robust z-score, replicate 1: -1.32
- robust z-score, replicate 2: -2.19
- robust z-score, replicate 3: -1.39
- outcome: inactive

KCTD4 (potassium channel tetramerization domain containing 4)
- robust z-score, replicate 1: -1.68
- robust z-score, replicate 2: -1.55
- robust z-score, replicate 3: -1.45
- outcome: inactive

TSBP1 (testis expressed basic protein 1)
- robust z-score, replicate 1: 0.728
- robust z-score, replicate 2: 2.62
- robust z-score, replicate 3: 0.206
- outcome: inactive

SERPINE1 (serpin family E member 1)
- robust z-score, replicate 1: -0.826
- robust z-score, replicate 2: -0.166
- robust z-score, replicate 3: 1.33
- outcome: inactive

OR6K6 (olfactory receptor family 6 subfamily K member 6)
- robust z-score, replicate 1: -0.0513
- robust z-score, replicate 2: -0.0964
- robust z-score, replicate 3: -0.0298
- outcome: inactive

OR3A3 (olfactory receptor family 3 subfamily A member 3)
- robust z-score, replicate 1: -0.714
- robust z-score, replicate 2: -0.48
- robust z-score, replicate 3: -1.07
- outcome: inactive

LOC440687 (retired record)
- robust z-score, replicate 1: -0.188
- robust z-score, replicate 2: -0.316
- robust z-score, replicate 3: -0.395
- outcome: inactive
